Paper PMC8867111
These are yes or no findings as the source states them, for the method shown. Binding can be weak; no strength is given. For part of these data: Sequences can lack the tags named with a protein. For part of these data: In cells and extracts the contact can be indirect.

Legend:
[1] = target: ZBP1, endogenous in PBMCs (human (endogenous in PBMCs)); test: co-IP
His-ZBP1 = test: pull-down; purified GST-TRIM34, His-RIPK3 and His-ZBP1 mixed (3.2 nM) in various combinations, immunoprecipitated with the indicated antibody, Western blot; both purified
ZBP1 (K43A) = test: co-IP; 293T cells transfected for 48 h; IP-lysis buffer (50 mM Tris-HCl, 150 mM NaCl, 1% Triton X-100, 1 mM EDTA, 10% glycerol, pH 7.4); indicated antibodies, protein G agarose, 4 C; wash with 300 mM NaCl; immunoblot

B1: TRIM34, endogenous in PBMCs (protein, UniProt Q9BYJ4 1-488)
chain: MASKILLNVQEEVTCPICLELLTEPLSLDCGHSLCRACITVSNKEAVTSMGGKSSCPVCGISYSFEHLQANQHLANIVERLKEVKLSPDNGKKRDLCDHHGEKLLLFCKEDRKVICWLCERSQEHRGHHTVLTEEVFKECQEKLQAVLKRLKKEEEEAEKLEADIREEKTSWKYQVQTERQRIQTEFDQLRSILNNEEQRELQRLEEEEKKTLDKFAEAEDELVQQKQLVRELISDVECRSQWSTMELLQDMSGIMKWSEIWRLKKPKMVSKKLKTVFHAPDLSRMLQMFRELTAVRCYWVDVTLNSVNLNLNLVLSEDQRQVISVPIWPFQCYNYGVLGSQYFSSGKHYWEVDVSKKTAWILGVYCRTYSRHMKYVVRRCANRQNLYTKYRPLFGYWVIGLQNKCKYGVFEESLSSDPEVLTLSMAVPPCRVGVFLDYEAGIVSFFNVTSHGSLIYKFSKCCFSQPVYPYFNPWNCPAPMTLCPPSS
binding [1]: binds

B2: GST-TRIM34 (protein, UniProt Q9BYJ4 1-488)
chain: B1 chain
binding (His-ZBP1): binds

B3: Flag-tagged TRIM34 (protein, UniProt Q9BYJ4 1-488)
chain: B1 chain
binding (ZBP1 (K43A)): binds
